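A cell line overexpressing EP4 prostanoid receptors, stimulated with a low (about EC15) PGE2 dose; cAMP read by HTRF FRET after a short room-temperature incubation. Compounds were tested at 20 µM final. A low (about EC15) PGE2 dose was present. Percent cAMP induction as a fraction of the 1 µM PGE2 response, averaged over three replicates; a higher value means more cAMP.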

Values are in %. Common to all entries: measured here: EP4 receptor counter-screen. This is a side read-out of the assay, for part of the compounds, not drawn at random.

compound	tested on / at	cAMP induction (%)
CC(Sc1cnc2ccccc2n1)C(=O)O (stereo not shown)	percent of 1 uM PGE2 response; plus low (about EC15) PGE2 agonist	67.14
CCOP(=O)(OCC)c1nc(-c2cccc3ccccc23)oc1NCc1ccccc1	percent of 1 uM PGE2 response; plus low (about EC15) PGE2 agonist	-20.34
CNC(=O)c1cc2c(=O)n3cc(C)ccc3nc2n(C(C)C)c1=N	percent of 1 uM PGE2 response; plus low (about EC15) PGE2 agonist	7.01
COc1ccc(-c2cc(C(F)(F)F)nc(NC3CCCC3)n2)cc1OC	percent of 1 uM PGE2 response; plus low (about EC15) PGE2 agonist	-9.923
COc1cc2cc(Br)cc(Br)c2nc1C	percent of 1 uM PGE2 response; plus low (about EC15) PGE2 agonist	60.64
CN(CC(=O)Nc1ccccc1-c1ccccc1)C1CCCCC1	-	-4.527
Cc1ccc(/C=N/N(Cc2ccccc2)c2ccccc2)o1	percent of 1 uM PGE2 response; plus low (about EC15) PGE2 agonist	14.73
CCCn1c(SCC(=O)Nc2sc(C)c(C)c2C(=O)OCC)nc2c1c(=O)n(C)c(=O)n2C	percent of 1 uM PGE2 response; plus low (about EC15) PGE2 agonist	3.617
Cc1ccc(NC2=C(C(=O)c3ccccc3)N(C)S(=O)(=O)c3ccccc32)cc1	percent of 1 uM PGE2 response; plus low (about EC15) PGE2 agonist	9.187
CCOC(=O)n1c(=O)n(Cc2ccc(Cl)c(Cl)c2)c2ccccc21	percent of 1 uM PGE2 response; plus low (about EC15) PGE2 agonist	-1.433
N#CN=C1SCCS1	percent of 1 uM PGE2 response; plus low (about EC15) PGE2 agonist	0.6433
CCCOc1ccc(Cl)cc1CNc1ccccc1	percent of 1 uM PGE2 response; plus low (about EC15) PGE2 agonist	8.937
Cc1ccc2nc(-c3ccccn3)c(Nc3ccccc3C)n2c1	percent of 1 uM PGE2 response; plus low (about EC15) PGE2 agonist	-1.883
C#CCn1c(S(=O)(=O)Cc2ccccc2Cl)nc(-c2ccccc2)c1-c1ccccc1	percent of 1 uM PGE2 response; plus low (about EC15) PGE2 agonist	-3.133
O=C1C2C(c3ccccc3)C=CC(c3ccccc3)C2C(=O)N1c1ccncc1 (stereo not shown)	percent of 1 uM PGE2 response; plus low (about EC15) PGE2 agonist	12.67
Cc1cc(C)n(CCOc2ccc(Cl)cc2Cl)n1	percent of 1 uM PGE2 response; plus low (about EC15) PGE2 agonist	4.18
CCCC(=O)Nc1ccccc1Sc1ncnc2scc(-c3ccccc3)c12	percent of 1 uM PGE2 response; plus low (about EC15) PGE2 agonist	-4.863
CCOC(=O)c1c(CC(C)C)csc1NC(=O)CCl	percent of 1 uM PGE2 response; plus low (about EC15) PGE2 agonist	1.023
CCOC(=O)c1c(NC(=O)CN2C(=O)NC3(CCCCCC3)C2=O)sc(C)c1-c1ccc(C)cc1	percent of 1 uM PGE2 response; plus low (about EC15) PGE2 agonist	2.913
CCOC(=O)c1cnc2c(c(C)nn2C)c1Oc1ccc(Cl)cc1	percent of 1 uM PGE2 response; plus low (about EC15) PGE2 agonist	0.6167
NS(=O)(=O)c1ccc(NCc2cnc3ccccc3n2)cc1	percent of 1 uM PGE2 response; plus low (about EC15) PGE2 agonist	10
COc1ccc(C(=O)Nc2ccccc2N2CCCCC2)cc1[N+](=O)[O-]	percent of 1 uM PGE2 response; plus low (about EC15) PGE2 agonist	17.06
Nc1nc(Cc2ccccc2)nc(Cc2ccccc2)c1-c1ccccc1	percent of 1 uM PGE2 response; plus low (about EC15) PGE2 agonist	-0.72
O=C1c2ccccc2OC2(C=Cc3ccccc3O2)N1Cc1ccccc1 (stereo not shown)	percent of 1 uM PGE2 response; plus low (about EC15) PGE2 agonist	-14.43
N#CC1=C(N)S[C@H](C(=O)C23CC4CC(CC(C4)C2)C3)[C@H]1c1ccncc1	percent of 1 uM PGE2 response; plus low (about EC15) PGE2 agonist	17.18
COc1ccc(C(=O)c2ccccc2)c(O)c1	percent of 1 uM PGE2 response; plus low (about EC15) PGE2 agonist	0.3167
O=C1COc2ccccc2N1Cc1ccccc1Cl	percent of 1 uM PGE2 response; plus low (about EC15) PGE2 agonist	3.827
CCOC(=O)c1c(NC(=O)COC(=O)Cn2c(C)nc3ccccc32)sc2c1CCCC2	percent of 1 uM PGE2 response; plus low (about EC15) PGE2 agonist	-4.703
Cc1sc(NC(=O)c2ccccc2F)c(CN2CCCCC2C)c1C (stereo not shown)	percent of 1 uM PGE2 response; plus low (about EC15) PGE2 agonist	5.86
Cc1cccc(OC(=O)c2sc(Cl)nc2C)c1	percent of 1 uM PGE2 response; plus low (about EC15) PGE2 agonist	6.263
CCc1c(C)nc2ccc(Br)cc2c1SCCC#N	percent of 1 uM PGE2 response; plus low (about EC15) PGE2 agonist	36.77
CC(=O)N1Cc2ccccc2C(C)CC12CCCCC2 (stereo not shown)	percent of 1 uM PGE2 response; plus low (about EC15) PGE2 agonist	7.897
O=c1c2c(n3nnnc3n1-c1ccccc1)-c1ccccc1CC21CCCC1	percent of 1 uM PGE2 response; plus low (about EC15) PGE2 agonist	1.99
CC(CC(=O)O)(CC(=O)O)C(=O)O	percent of 1 uM PGE2 response; plus low (about EC15) PGE2 agonist	1.173
COc1ccc(-c2noc(-c3ccccc3C(=O)Nc3cccnc3)n2)cc1	percent of 1 uM PGE2 response; plus low (about EC15) PGE2 agonist	-14.5

Repeated from the top, 2 entries:

* CC(Sc1cnc2ccccc2n1)C(=O)O (stereo not shown) [percent of 1 uM PGE2 response; plus low (about EC15) PGE2 agonist] : cAMP induction 67.14%
* CCOP(=O)(OCC)c1nc(-c2cccc3ccccc23)oc1NCc1ccccc1 [percent of 1 uM PGE2 response; plus low (about EC15) PGE2 agonist] : cAMP induction -20.34%

From PubChem BioAssay record AID1080 (Emory University Molecular Libraries Screening Center, 2008).